# Data published in PubChem BioAssay AID493014 (National Center for Advancing Translational Sciences (NCATS), 2011).
# “And” between values parts separate entries of the source, which are not always exact repeats. Identical values can stand only once. Some of the results follow. Shown are side measurements of this screen, not its main read-out; they come without a call. Most of these compounds were active or inconclusive in the main read-out, so they are no random draw. The note in brackets gives the kind of curve behind each potency; many fits are weak.
# Experiment: qHTS Assay to Find Inhibitors of Chronic Active B-Cell Receptor Signaling
# Conditions: ABC-DLBCL IkBa-CBG/CBR reporter, luminescence ratio (green luciferase fused to IkBa over red control in TMD8 lymphoma cells), 4 h
# How it was run: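 Concentration-response series (up to 46 uM) were applied to TMD8 dual-reporter cells for 4 h at 37C with doxycycline. Green/red ratio, after filter-overlap correction, defined %Activity; red signal alone was normalised to basal cells and zero luminescence.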
# [1] = measured here: CBR red luminescence, cell number
# [2] = measured here: IkBa-CBG green luminescence
SMILES,AC50 [1],AC50 [2]
NNc1cc(C(=O)O)ccc1Cl,"10 µM [rising, partial curve, poor fit]",
CCn1cc(C(=O)NCc2ccccc2OC)c(=O)c2cc(S(=O)(=O)N(C)C)ccc21,"2.06 µM [rising, partial curve, poor fit]",
CCOC(=O)N1CCN(C(=O)c2nc3ccccc3s2)CC1,"29.1 µM [falling, single point]",
CCOC(=O)CSc1nc(C2CC2)nc2ccccc12,"22.4 µM [falling, single point]",
COc1ccc(CCNC(=O)CCCc2ccccc2)cc1OC,"35.5 µM [falling, single point]","35.5 µM [rising, single point]"
CC(=O)N1N=C(C)CC1c1ccc(OCc2ccccc2)cc1 (stereo not drawn),"6.51 µM [rising, partial curve, poor fit]",
Cc1ccc2nc3c(c(N)c2c1)CCN3c1ccccc1,"5.62 µM [rising, partial curve, poor fit]",
O=C1/C(=C/c2ccncc2)CCC/C1=C\c1ccncc1,"12.6 µM [falling, partial curve, poor fit]",
CCOC(=O)C1=C(C)NC2=C(C(=O)CCC2)C1c1ccc(N(C)C)cc1 (stereo not drawn),"13 µM [rising, single point]",
CCc1ccc(/C=N/Nc2ncnc3nc[nH]c23)cc1,"35.5 µM [falling, single point]",
COCCCNCCCCOc1ccc(Br)cc1Cl,"18.4 µM [falling, partial curve, poor fit]",
Cc1cc(C)c2cc(C(=O)Nc3ccc(C)c(F)c3)[nH]c2c1,"0.794 µM [rising, full curve, poor fit]",
O=C(O)c1cccc(S(=O)(=O)N2CCOCC2)c1,"4.11 µM [rising, partial curve, poor fit]",
CCc1ccc(N=C2NC(=O)/C(=C/c3ccc(OCC(=O)O)c(OC)c3)S2)cc1,"5.62 µM [rising, partial curve]",
CCOc1cc(C(=O)N(C)CC(=O)Nc2cccc3ccccc23)ccc1OC,,"18.4 µM [falling, partial curve, poor fit]"
Cc1ccccc1SCc1noc(C(=O)NC(C)C)c1C(=O)O,"12.6 µM [falling, partial curve]",
c1ccc2c(c1)CCN(c1nc3ccccc3n3cnnc13)C2,"20.6 µM [falling, single point]",
O=C(CC1CCCC1)Nc1nc2ccccc2[nH]1,"10 µM [falling, partial curve]",
O=C(c1cc2c(s1)CCCC2)N1CCN(Cc2ccc3c(c2)OCO3)CC1,"35.5 µM [falling, partial curve, poor fit]",
CC(C)(C)c1cc2cccnc2n1Cc1cccc(Cl)c1,"29.1 µM [falling, single point]",
COc1ccc(C(=O)NCC(c2ccco2)N2CCc3ccccc32)c(OC)c1 (stereo not drawn),"18.4 µM [falling, partial curve]","18.4 µM [rising, partial curve, poor fit]"

SMILES,AC50 [1],AC50 [2]
COc1ccc(C)cc1CN1C(=O)c2ccccc2C1=O,"35.5 µM [falling, partial curve, poor fit]",
O=C(Nc1ccc2oc(=O)ccc2c1)c1ccc(-c2ccccc2[N+](=O)[O-])o1,"10 µM [rising, partial curve]",
O=C1CSC(c2cccc(Cl)c2Cl)N1c1ccccn1 (stereo not drawn),"2.31 µM [rising, single point]",
Oc1[nH]c2ccccc2c1C=Nc1ccc2c(c1)OCCO2,"22.4 µM [falling, partial curve, poor fit]",
CC(C)OCCCNC(=O)c1sc(=S)n(C)c1N,"3.16 µM [rising, single point]",
COc1ccc(C(=O)O/N=C(/c2cccs2)C(C)(C)C)cc1,"3.55 µM [rising, full curve, poor fit]",
O=C(Nc1ccc(Oc2ccc(NC(=O)Nc3ccc([N+](=O)[O-])cc3)cc2)cc1)Nc1ccc([N+](=O)[O-])cc1,"3.98 µM [rising, partial curve]",
Oc1c(C=C2N=c3ccccc3=N2)sc(=S)n1-c1ccc(F)cc1,"7.94 µM [falling, partial curve] and 16.4 µM [falling, single point]",
O=C(CS(=O)(=O)c1ccccc1)c1cc2ccccc2oc1=O,"35.5 µM [falling, single point]",
Cc1cc(C)nc(NNC2=CC(=[N+]3CCCC3)CCC2)n1,"0.224 µM [falling, full curve, poor fit]",
CC(C)(C)c1[nH]nc2c1C(c1ccncc1)C(C#N)=C(N)O2 (stereo not drawn),"15.8 µM [falling, partial curve, poor fit]",
O=C(CSc1ccccn1)N1CCN(c2cccc(Cl)c2)CC1,"23.1 µM [rising, single point]",
COc1ccc(NC(=O)CCC(=O)OCc2ccc(C(=O)Oc3ccc(Cl)cc3)cc2)cc1,"11.2 µM [rising, partial curve]",
Cc1nn(-c2ccccc2)c(N)c1N=Nc1ccccc1,"1.46 µM [rising, partial curve]",
Cc1cccc(NS(=O)(=O)c2ccc(C3CCCCC3)cc2)n1,,"8.2 µM [falling, partial curve, poor fit]"
COC(=O)c1cc(OC)c(OC)c(OC)c1[N+](=O)[O-],"35.5 µM [falling, single point]",
C=CCOc1ccc(Br)cc1/C=C1/SC(=Nc2ccc(C(=O)O)cc2)NC1=O,"2.24 µM [falling, full curve, poor fit]",
COC(=O)CSc1nc(NC(C)(C)C)nc(N(C)C)n1,"6.31 µM [rising, full curve, poor fit]",
COc1ccc(C2c3[nH]c4ccccc4c3CCN2CCCn2cccn2)c(C)c1C (stereo not drawn),"35.5 µM [falling, single point]",
O=C(Nc1cccnc1)c1cc(-c2cc(Cl)ccc2O)n[nH]1,"8.91 µM [falling, partial curve, poor fit]",
